This is one part of the list.
What was measured:
Test in all cases: glycan array binding signal (z-score within array); higher = stronger binding
Settings in all cases: glycan notation: IUPAC condensed, linker removed
[1] = target: GlcNAc(b1-3)Gal(b1-4)Glc
Summary of the method: (§1)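 The binding signal is a Z-score computed within each array and averaged over linkers. Arrays of the same protein sequence at different concentrations or buffers were also averaged together. Data originate from 3228 arrays in the Consortium for Functional Glycomics database, kept only where the protein sequence was available.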

[2] = target: GlcNAc(b1-3)Gal(b1-4)GlcNAc
Summary of the method: as §1

[3] = target: GlcNAc(b1-3)Gal(b1-4)GlcNAc(b1-2)Man(a1-3)[GlcNAc(b1-3)Gal(b1-4)GlcNAc(b1-2)Man(a1-6)]Man(b1-4)GlcNAc(b1-4)GlcNAc
Summary of the method: as §1

[4] = target: GlcNAc(b1-3)Gal(b1-4)GlcNAc(b1-2)Man(a1-3)[GlcNAc(b1-3)Gal(b1-4)GlcNAc(b1-2)Man(a1-6)]Man(b1-4)GlcNAc(b1-4)[Fuc(a1-6)]GlcNAc
Summary of the method: as §1

[5] = target: GlcNAc(b1-3)Gal(b1-4)GlcNAc(b1-2)[GlcNAc(b1-3)Gal(b1-4)GlcNAc(b1-6)]Man(a1-6)[GlcNAc(b1-3)Gal(b1-4)GlcNAc(b1-2)Man(a1-3)]Man(b1-4)GlcNAc(b1-4)GlcNAc
Summary of the method: as §1

[6] = target: GlcNAc(b1-3)Gal(b1-4)GlcNAc(b1-3)Gal(b1-4)GlcNAc
Summary of the method: as §1

[7] = target: GlcNAc(b1-3)Gal(b1-4)GlcNAc(b1-3)Gal(b1-4)GlcNAc(b1-2)Man(a1-3)[GlcNAc(b1-3)Gal(b1-4)GlcNAc(b1-3)Gal(b1-4)GlcNAc(b1-2)Man(a1-6)]Man(b1-4)GlcNAc(b1-4)GlcNAc
Summary of the method: as §1

[8] = target: GlcNAc(b1-3)Gal(b1-4)GlcNAc(b1-3)Gal(b1-4)GlcNAc(b1-2)Man(a1-3)[GlcNAc(b1-3)Gal(b1-4)GlcNAc(b1-3)Gal(b1-4)GlcNAc(b1-2)Man(a1-6)]Man(b1-4)GlcNAc(b1-4)[Fuc(a1-6)]GlcNAc
Summary of the method: as §1

[9] = target: GlcNAc(b1-3)Gal(b1-4)GlcNAc(b1-3)Gal(b1-4)GlcNAc(b1-2)[GlcNAc(b1-3)Gal(b1-4)GlcNAc(b1-3)Gal(b1-4)GlcNAc(b1-6)]Man(a1-6)[GlcNAc(b1-3)Gal(b1-4)GlcNAc(b1-3)Gal(b1-4)GlcNAc(b1-2)Man(a1-3)]Man(b1-4)GlcNAc(b1-4)[Fuc(a1-6)]GlcNAc
Summary of the method: as §1

[10] = target: GlcNAc(b1-3)Gal(b1-4)GlcNAc(b1-3)Gal(b1-4)GlcNAc(b1-3)Gal(b1-4)GlcNAc(b1-2)Man(a1-3)[GlcNAc(b1-3)Gal(b1-4)GlcNAc(b1-3)Gal(b1-4)GlcNAc(b1-3)Gal(b1-4)GlcNAc(b1-2)Man(a1-6)]Man(b1-4)GlcNAc(b1-4)GlcNAc
Summary of the method: as §1

[11] = target: GlcNAc(b1-3)Gal(b1-4)GlcNAc(b1-3)Gal(b1-4)GlcNAc(b1-3)Gal(b1-4)GlcNAc(b1-2)Man(a1-3)[GlcNAc(b1-3)Gal(b1-4)GlcNAc(b1-3)Gal(b1-4)GlcNAc(b1-3)Gal(b1-4)GlcNAc(b1-2)Man(a1-6)]Man(b1-4)GlcNAc(b1-4)[Fuc(a1-6)]GlcNAc
Summary of the method: as §1

[12] = target: GlcNAc(b1-3)Gal(b1-4)GlcNAc(b1-3)Gal(b1-4)GlcNAc(b1-3)Gal(b1-4)GlcNAc(b1-2)[GlcNAc(b1-3)Gal(b1-4)GlcNAc(b1-3)Gal(b1-4)GlcNAc(b1-3)Gal(b1-4)GlcNAc(b1-6)]Man(a1-6)[GlcNAc(b1-3)Gal(b1-4)GlcNAc(b1-3)Gal(b1-4)GlcNAc(b1-3)Gal(b1-4)GlcNAc(b1-2)Man(a1-3)]Man(b1-4)GlcNAc(b1-4)[Fuc(a1-6)]GlcNAc
Summary of the method: as §1

[13] = target: GlcNAc(b1-3)Gal(b1-4)GlcNAc(b1-3)Gal(b1-4)GlcNAc(b1-3)Gal(b1-4)GlcNAc(b1-3)Gal(b1-4)GlcNAc(b1-2)Man(a1-3)[GlcNAc(b1-3)Gal(b1-4)GlcNAc(b1-3)Gal(b1-4)GlcNAc(b1-3)Gal(b1-4)GlcNAc(b1-3)Gal(b1-4)GlcNAc(b1-2)Man(a1-6)]Man(b1-4)GlcNAc(b1-4)GlcNAc
Summary of the method: as §1

[14] = target: GlcNAc(b1-3)Gal(b1-4)GlcNAc(b1-3)Gal(b1-4)GlcNAc(b1-3)Gal(b1-4)GlcNAc(b1-3)Gal(b1-4)GlcNAc(b1-2)Man(a1-3)[GlcNAc(b1-3)Gal(b1-4)GlcNAc(b1-3)Gal(b1-4)GlcNAc(b1-3)Gal(b1-4)GlcNAc(b1-3)Gal(b1-4)GlcNAc(b1-2)Man(a1-6)]Man(b1-4)GlcNAc(b1-4)[Fuc(a1-6)]GlcNAc
Summary of the method: as §1

[15] = target: GlcNAc(b1-3)Gal(b1-4)GlcNAc(b1-3)Gal(b1-4)GlcNAc(b1-3)Gal(b1-4)GlcNAc(b1-3)Gal(b1-4)GlcNAc(b1-2)[GlcNAc(b1-3)Gal(b1-4)GlcNAc(b1-3)Gal(b1-4)GlcNAc(b1-3)Gal(b1-4)GlcNAc(b1-3)Gal(b1-4)GlcNAc(b1-6)]Man(a1-6)[GlcNAc(b1-3)Gal(b1-4)GlcNAc(b1-3)Gal(b1-4)GlcNAc(b1-3)Gal(b1-4)GlcNAc(b1-3)Gal(b1-4)GlcNAc(b1-2)Man(a1-3)]Man(b1-4)GlcNAc(b1-4)[Fuc(a1-6)]GlcNAc
Summary of the method: as §1

[16] = target: GlcNAc(b1-3)Gal(b1-4)GlcNAc(b1-3)Gal(b1-4)GlcNAc(b1-3)GalNAc
Summary of the method: as §1

[17] = target: GlcNAc(b1-3)Gal(b1-4)GlcNAc(b1-3)GalNAc
Summary of the method: as §1

[18] = target: GlcNAc(b1-3)Gal(b1-4)GlcNAc(b1-3)[GlcNAc(b1-3)Gal(b1-4)GlcNAc(b1-3)]GalNAc
Summary of the method: as §1

[19] = target: GlcNAc(b1-3)Gal(b1-4)GlcNAc(b1-6)[Gal(b1-3)]GalNAc
Summary of the method: as §1

[20] = target: GlcNAc(b1-3)Gal(b1-4)GlcNAc(b1-6)[GlcNAc(b1-3)Gal(b1-3)]GalNAc
Summary of the method: as §1

[21] = target: GlcNAc(b1-3)Gal(b1-4)GlcNAc(b1-6)[GlcNAc(b1-3)]Gal(b1-4)GlcNAc
Summary of the method: as §1

[22] = target: GlcNAc(b1-3)GalNAc
Summary of the method: as §1

[23] = target: GlcNAc(b1-3)Man
Summary of the method: as §1

[24] = target: GlcNAc(b1-3)[GlcNAc(b1-4)][GlcNAc(b1-6)]GlcNAc
Summary of the method: as §1

[25] = target: GlcNAc(b1-3)[GlcNAc(b1-6)]Gal(b1-4)GlcNAc
Summary of the method: as §1

[26] = target: GlcNAc(b1-3)[GlcNAc(b1-6)]GalNAc
Summary of the method: as §1

[27] = target: GlcNAc(b1-4)Gal(b1-4)GlcNAc
Summary of the method: as §1

[28] = target: GlcNAc(b1-4)GlcNAc
Summary of the method: as §1

[29] = target: GlcNAc(b1-4)GlcNAc(b1-4)GlcNAc
Summary of the method: as §1

[30] = target: GlcNAc(b1-4)GlcNAc(b1-4)GlcNAc(b1-4)GlcNAc(b1-4)GlcNAc
Summary of the method: as §1

[31] = target: GlcNAc(b1-4)GlcNAc(b1-4)GlcNAc(b1-4)GlcNAc(b1-4)GlcNAc(b1-4)GlcNAc
Summary of the method: as §1

[32] = target: GlcNAc(b1-4)[GlcNAc(b1-6)]GalNAc
Summary of the method: as §1

[33] = target: GlcNAc(b1-6)Gal(b1-4)GlcNAc
Summary of the method: as §1

[34] = target: GlcNAc(b1-6)GalNAc
Summary of the method: as §1

[35] = target: GlcNAc6S(b1-3)Gal(b1-4)GlcNAc
Summary of the method: as §1

[36] = target: Kdn(a2-3)Gal(b1-3)GalNAc
Summary of the method: as §1

[37] = target: Kdn(a2-3)Gal(b1-3)GlcNAc
Summary of the method: as §1

[38] = target: Kdn(a2-3)Gal(b1-4)Glc
Summary of the method: as §1

[39] = target: Kdn(a2-3)Gal(b1-4)GlcNAc
Summary of the method: as §1

[40] = target: Kdn(a2-3)Gal(b1-4)[Fuc(a1-3)]GlcNAc
Summary of the method: as §1

[41] = target: Kdn(a2-6)Gal(b1-4)GlcNAc
Summary of the method: as §1

[42] = target: Man(a1-2)Man(a1-2)Man(a1-3)Man
Summary of the method: as §1

[43] = target: Man(a1-2)Man(a1-2)Man(a1-6)[Man(a1-3)]Man
Summary of the method: as §1

[44] = target: Man(a1-2)Man(a1-3)Man
Summary of the method: as §1

[45] = target: Man(a1-2)Man(a1-3)[Man(a1-2)Man(a1-6)]Man
Summary of the method: as §1

B1: EUL D1A second (Oryza sativa) (protein)
chain: GAATACTIGGVPVHTVRVFSAAGEDYCLTVRNGTACLAPKNPRDDYQHWIKDMRHSNKIRDEEGYPAFALVNKVTGEAIKHSTGQGHPVKLVPYNPEYQDESVLWTESKDVGKGFRCIRMVNNIYLNFDAFHGDKDHGGIHDGTEIVLWKWCEGDNQRWKILPWILEQKLISEEDLNSAVDHHHHHH
glycan array binding signal (z-score) [1]: -0.312
glycan array binding signal (z-score) [2]: -0.23
glycan array binding signal (z-score) [3]: -0.922
glycan array binding signal (z-score) [4]: 0.492
glycan array binding signal (z-score) [5]: 0.98
glycan array binding signal (z-score) [6]: 0.92
glycan array binding signal (z-score) [7]: 0.61
glycan array binding signal (z-score) [8]: 1.05
glycan array binding signal (z-score) [9]: 1.27
glycan array binding signal (z-score) [10]: 0.539
glycan array binding signal (z-score) [11]: 1.65
glycan array binding signal (z-score) [12]: 0.63
glycan array binding signal (z-score) [13]: 0.254
glycan array binding signal (z-score) [14]: 0.38
glycan array binding signal (z-score) [15]: 1.29
glycan array binding signal (z-score) [16]: 1.22
glycan array binding signal (z-score) [17]: 0.388
glycan array binding signal (z-score) [18]: 1.31
glycan array binding signal (z-score) [19]: 0.183
glycan array binding signal (z-score) [20]: -0.666
glycan array binding signal (z-score) [21]: -0.554
glycan array binding signal (z-score) [22]: -1.32
glycan array binding signal (z-score) [23]: 0.35
glycan array binding signal (z-score) [24]: -0.48
glycan array binding signal (z-score) [25]: -0.302
glycan array binding signal (z-score) [26]: -0.106
glycan array binding signal (z-score) [27]: -0.637
glycan array binding signal (z-score) [28]: -0.613
glycan array binding signal (z-score) [29]: 1.64
glycan array binding signal (z-score) [30]: -1.07
glycan array binding signal (z-score) [31]: 0.278
glycan array binding signal (z-score) [32]: -0.443
glycan array binding signal (z-score) [33]: 0.582
glycan array binding signal (z-score) [34]: 0.18
glycan array binding signal (z-score) [35]: -0.146
glycan array binding signal (z-score) [36]: 0.8
glycan array binding signal (z-score) [37]: -0.321
glycan array binding signal (z-score) [38]: -0.642
glycan array binding signal (z-score) [39]: 1.56
glycan array binding signal (z-score) [40]: 0.269
glycan array binding signal (z-score) [41]: -1.38
glycan array binding signal (z-score) [42]: 0.075
glycan array binding signal (z-score) [43]: -0.112
glycan array binding signal (z-score) [44]: -0.866
glycan array binding signal (z-score) [45]: -1.75
